Assay [1] addresses T1, GLD-1 (C. elegans (endogenous in N2 wild-type worms)) (UniProt Q17339).
T1 sequence: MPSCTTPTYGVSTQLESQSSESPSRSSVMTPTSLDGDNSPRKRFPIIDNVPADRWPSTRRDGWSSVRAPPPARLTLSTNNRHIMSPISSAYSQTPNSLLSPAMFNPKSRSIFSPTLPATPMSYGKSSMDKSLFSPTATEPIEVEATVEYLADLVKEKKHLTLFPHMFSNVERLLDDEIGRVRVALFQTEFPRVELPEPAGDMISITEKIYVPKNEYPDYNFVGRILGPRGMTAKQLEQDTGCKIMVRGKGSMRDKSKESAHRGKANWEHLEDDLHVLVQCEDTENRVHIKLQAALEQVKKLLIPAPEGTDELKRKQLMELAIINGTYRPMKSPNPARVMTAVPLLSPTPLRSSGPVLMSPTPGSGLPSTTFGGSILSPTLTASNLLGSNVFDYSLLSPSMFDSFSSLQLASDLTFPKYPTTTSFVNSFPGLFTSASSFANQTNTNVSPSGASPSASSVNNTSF
The experiment in a line: affinity purification with mass spectrometry; rabbit anti-GLD-1 antibody with protein G sepharose beads on 2 mg N2 wild-type worm lysate (10 mM Tris-HCl pH 7.5, 150 mM NaCl, 0.5 mM EDTA, 0.5% NP40), 4°C; washed with 300 mM NaCl; no-Ab beads as mock; SDS gel, silver stain, mass spectrometry.

Chains of the proteins cited; added tags and fusions are not shown.
UniProt G5EES3: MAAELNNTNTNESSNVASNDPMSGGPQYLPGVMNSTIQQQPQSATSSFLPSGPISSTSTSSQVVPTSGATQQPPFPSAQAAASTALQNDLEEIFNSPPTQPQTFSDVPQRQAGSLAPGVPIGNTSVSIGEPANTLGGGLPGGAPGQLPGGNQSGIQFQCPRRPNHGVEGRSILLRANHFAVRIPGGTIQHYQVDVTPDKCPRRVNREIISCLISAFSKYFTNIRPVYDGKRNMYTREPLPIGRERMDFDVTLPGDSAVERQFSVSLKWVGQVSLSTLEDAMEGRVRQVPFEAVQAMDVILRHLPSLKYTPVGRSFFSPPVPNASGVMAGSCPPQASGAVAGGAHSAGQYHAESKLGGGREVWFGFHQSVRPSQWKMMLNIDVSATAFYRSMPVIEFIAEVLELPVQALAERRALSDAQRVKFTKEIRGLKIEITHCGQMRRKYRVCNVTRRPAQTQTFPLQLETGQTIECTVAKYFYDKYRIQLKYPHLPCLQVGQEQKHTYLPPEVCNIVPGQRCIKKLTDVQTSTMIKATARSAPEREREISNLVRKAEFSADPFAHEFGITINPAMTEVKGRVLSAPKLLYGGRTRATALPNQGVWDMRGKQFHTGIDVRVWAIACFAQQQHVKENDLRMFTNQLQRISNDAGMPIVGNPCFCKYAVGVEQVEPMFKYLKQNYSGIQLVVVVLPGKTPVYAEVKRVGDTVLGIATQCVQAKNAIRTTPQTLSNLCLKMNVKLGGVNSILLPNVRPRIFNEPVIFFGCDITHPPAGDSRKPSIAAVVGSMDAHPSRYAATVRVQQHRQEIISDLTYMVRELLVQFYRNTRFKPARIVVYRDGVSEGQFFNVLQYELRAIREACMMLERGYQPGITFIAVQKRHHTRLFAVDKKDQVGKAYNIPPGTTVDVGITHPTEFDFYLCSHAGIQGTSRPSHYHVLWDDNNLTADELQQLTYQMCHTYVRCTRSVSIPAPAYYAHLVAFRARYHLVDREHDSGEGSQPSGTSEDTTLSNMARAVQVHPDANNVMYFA

Assay [2] addresses T2, GLD-1::GFP fusion protein (C. elegans) (UniProt Q17339).
T2 sequence: T1 sequence
The experiment in a line: affinity purification with mass spectrometry; GFP-binder pull-down of GLD-1::GFP complexes from gld-1(q485); ozIs2 [gld-1::gfp::FLAG] worms, as described in ref. 31; mass spectrometry.

No constants are given. Whether binding was seen depends on the method and setting. In cells and extracts the contact can be indirect. These calls come from enrichment with a bait or labelling near it, and not all partners need be listed. For some of these results: Where a sequence is shown, tags or fusion partners need not be part of it.

On to ALG-1 (from UniProt G5EES3 1-1023), for which the binding entry in assay [1] and in assay [2] was “binds” throughout.
With “CEY-2 (C. elegans (endogenous in worms))”, the binding result in assay [1] and in assay [2] was “binds” in each case.
On to “CEY-3 (C. elegans (endogenous in worms))”, for which the binding entry in assay [1] and in assay [2] was “binds” in each case.
Regarding “CEY-4 (C. elegans (endogenous in worms))”, the binding entry in assay [1] and in assay [2] was “binds” each time.
Consider “SQD-1 (C. elegans (endogenous in worms))”, for which the binding entry in assay [1] and in assay [2] was “binds” each time.

B1: PAB-1 (protein, UniProt Q9U302 1-646)
chain: MEMNVAAPAAAVAGAAAPQPGQNQTGSSYTMASLYVGDLHPDVNESILFEKFSAAGPVLSIRVCRDNATRLSLGYAYVNFQQPADAERAMDTMNFEALHGKPMRIMWSQRDPAMRRSGAGNIFIKNLDKVIDNKSIYDTFSLFGNILSCKVAIDEDGFSKGYGFVHFETEEAAQNAIQKVNGMLLAGKKVFVGKFQPRAQRNRELGETAKQFTNVYVKNFGDHYNKETLEKLFAKFGNITSCEVMTVEGKSKGFGFVAFANPEEAETAVQALHDSTIEGTDLKLHVCRAQKKSERHAELKKKHEQHKAERMQKYQGVNLYVKNLDETVDDDGLKKQFESYGNITSAKVMTDENGRSKGFGFVCFEKPEEATSAVTEMNSKMVCSKPLYVAIAQRKEDRRAQLASQYMQRLASMRMHGNVPGAAMYNPTQPGPGYYVANPMQQQRNFAGGQQMVRPGGRWGMQNQYPVQNQYMMAQGPGVYQNRMGRPQNQQGGPRGPPQQYNQVAQGGVRMQGPPRTQNPGVQQQNVPRPPQQQQQQRPAPTGPKAPPQPYQAYQQRPQGIVIGGQEPLTSAMLAAAAPQEQKQLLGERIYALIEKLYPGHKDAGKITGMMLEIDNSELIMMLQDSELFRSKVDEAASVLVSAQKQ
With B1, the binding result in assay [1] and in assay [2] was “binds” in each case.

B2: CGH-1 helicase (protein, UniProt Q95YF3 1-430)
chain: MSGAEQQQIVPANNGDENWKAGLNLPAKDRRFKTADVTDTKGVEFEDFCLGRDLLMGIFEKGWEKPSPIQEASIGVALTGQDILARAKNGTGKTGAYCIPVIEKIQPALKAIQAMVIVPTRELALQTSQICVELSKHIQLKVMVTTGGTDLRDDIMRLNGTVHLVIATPGRILDLMEKGVAKMEHCKTLVLDEADKLLSQDFQGILDRLINFLPKERQVMLYSATFPNTVTSFMQKHMHKPYEINLMEELTLLGVTQYYAFVQEKQKVHCLNTLFRKLQINQSIIFCNSTQRVELLAKKITEIGYSCYYIHSKMAQNHRNRVFHDFRQGNCRNLVCSDLLTRGIDIQAVNVVINFDFPRNAETYLHRIGRSGRFGHLGVAINLITYEDRHTLRRIEQELRTRIEPIPKTVDPKLYVADQQLVDAADETTA
In the case of B2, the binding result in assay [1] and in assay [2] was “binds” each time.

B3: CAR-1 (protein, UniProt Q9XW17 1-340)
chain: MSNQTPYIGSKISLISKLDIRYEGILYTVDTNDSTIALAKVRSFGTEKRPTANPVAARDDVYEYIIFKASDIKDLIVCDTPKMANIGGGLPYDPAIISVSSRSAPASDGAPAASAGSSRAGTPSRNSPLGQIIQNQRPGRGGYQQNFQANRGYNNYRGGFAGGYNNQRGHNNYGVPRVNHREKLKFESDFDFEKANEKFQEVLVDNLEKLNIEDKAEPEVEEKKDAAFYDKKTSFFDNISCESLEKAEGKTGRPDWKKERETNQETFGHNAVRSLNYRRGFGGRGRGGNRGYGGYNNGYQHQHQHRGGYNGGYRQNNGGYRRGGYAPRDNQGNTAAAAEQ
With B3, the binding entry in assay [1] and in assay [2] was “binds” in each case.

The values above are taken from PMC3843822.
